Reference: patent US10640547B2, “Immunotherapy against melanoma and other cancers” (IMMATICS BIOTECHNOLOGIES GMBH, priority 2016, dated 2020)

Tested on: HLA molecules of melanoma, other tumor and normal tissue samples
Assay: Identification and relative quantitation of tumor associated peptides presented on the cell surface (HLA immunoprecipitation, label-free LC-MS)
Set-up: species or system human; key to Peptide Presentation (presentation score): very highly over-presented on tumors compared to a panel of normal tissues (+++); highly over-presented on tumors compared to a panel of normal tissues (++); over-presented on tumors compared to a panel of normal tissues (+)
Settings: for Peptide Presentation (presentation score): over-presentation on tumors compared to a panel of normal tissues; for Additional Entities (additional tumor types on which the peptide was found) / relevant organs/diseases (additional tumor types on which the peptide was found): over-presented on more than 5% of the measured tumor samples, or presented on more than 5% with ratio of geometric means tumor vs normal tissues larger than 3

Substance	Peptide Presentation (presentation score)	Additional Entities (additional tumor types on which the peptide was found)	relevant organs/diseases (additional tumor types on which the peptide was found)
135 (FLDDQETRL; listed as Homo sapiens) [compound 135]	+	HNSCC	SCLC, CLL, OC
136 (FAYDGKDYIAL; listed as Homo sapiens) [compound 136]	++	RCC, Gallbladder Cancer, Bile Duct Cancer, NHL	
137 (ILPSNLLTV; listed as Homo sapiens) [compound 137]	+	HCC, CLL, Urinary bladder cancer, Uterine Cancer, AML, NHL	
138 (YLDKTFYNL; listed as Homo sapiens) [compound 138]	+		CRC, CLL, AML
139 (AVDATVNQV; listed as Homo sapiens) [compound 139]	+		CLL, Uterine Cancer
140 (RLEAYLARV; listed as Homo sapiens) [compound 140]	+		
141 (YVIDPIKGL; listed as Homo sapiens) [compound 141]		Esophageal Cancer	
143 (ILDDSALYL; listed as Homo sapiens) [compound 143]		AML	NHL, Uterine Cancer
144 (SVDEVEISV; listed as Homo sapiens) [compound 144]			CLL
145 (TLPNIYVTL; listed as Homo sapiens) [compound 145]			NHL, AML
146 (GVGPVPARA; listed as Homo sapiens) [compound 146]	+	HCC, NHL	PC, AML, Urinary bladder cancer
148 (TLKDIVQTV; listed as Homo sapiens) [compound 148]		HCC	CLL, NHL, BRCA
149 (YLDTFALKL; listed as Homo sapiens) [compound 149]	+		
150 (KLFPSPLQTL; listed as Homo sapiens) [compound 150]		Urinary bladder cancer	SCLC, RCC, PrC, Gallbladder Cancer, Bile Duct Cancer
151 (FLGEPASYLYL; listed as Homo sapiens) [compound 151]		HCC, BRCA, OC, Uterine Cancer	NHL
154 (TLGTATFTV; listed as Homo sapiens) [compound 154]			Urinary bladder cancer, Uterine Cancer
155 (GLAGFFASV; listed as Homo sapiens) [compound 155]	++		HCC, NHL, BRCA, Esophageal Cancer, Urinary bladder cancer, Uterine Cancer
156 (ALMDTDGSGKLNL; listed as Homo sapiens) [compound 156]	+		
157 (HLFETISQA; listed as Homo sapiens) [compound 157]	++		Urinary bladder cancer
158 (KLIPSIIVL; listed as Homo sapiens) [compound 158]			AML
159 (TILATVPLV; listed as Homo sapiens) [compound 159]	++	GC, HNSCC	SCLC, NHL, AML, BRCA, Urinary bladder cancer, Uterine Cancer, Gallbladder Cancer, Bile Duct Cancer
160 (ALDDISESI; listed as Homo sapiens) [compound 160]	+	GC, Uterine Cancer	Esophageal Cancer
161 (GLCDSIITI; listed as Homo sapiens) [compound 161]		GC, CRC, HCC, HNSCC	NSCLC, Brain Cancer, PC, NHL, BRCA, Uterine Cancer

Substance	Peptide Presentation (presentation score)	Additional Entities (additional tumor types on which the peptide was found)	relevant organs/diseases (additional tumor types on which the peptide was found)
163 (RLMANPEALKI; listed as Homo sapiens) [compound 163]	++	HCC, HNSCC	NHL, OC, Urinary bladder cancer, Uterine Cancer
164 (ALFFQLVDV; listed as Homo sapiens) [compound 164]	++	HCC, HNSCC	SCLC, RCC, AML, BRCA
165 (ALIEVLQPLI; listed as Homo sapiens) [compound 165]	++	GC, HNSCC	Urinary bladder cancer
166 (SIIPPLFTV; listed as Homo sapiens) [compound 166]	++	HCC	SCLC, PC, AML, BRCA, OC, Urinary bladder cancer
167 (KVLGDVIEV; listed as Homo sapiens) [compound 167]			RCC, Brain Cancer
168 (KLLAATLLL; listed as Homo sapiens) [compound 168]	+	HCC	RCC, AML, Esophageal Cancer
169 (TLLESIQHV; listed as Homo sapiens) [compound 169]	+	HNSCC	SCLC, Brain Cancer, CRC, NHL, AML, BRCA, OC
170 (KLKEAVEAI; listed as Homo sapiens) [compound 170]	++	HCC	RCC, CLL, NHL
171 (KVSGVILSV; listed as Homo sapiens) [compound 171]	++		NHL, AML, BRCA
172 (FLPAGIVAV; listed as Homo sapiens) [compound 172]	++		CLL, NHL, AML, Urinary bladder cancer, Uterine Cancer
173 (ALDDIIYRA; listed as Homo sapiens) [compound 173]	+	HNSCC	CLL, NHL
174 (TLLEGLTEL; listed as Homo sapiens) [compound 174]			OC, Uterine Cancer
175 (VLDSVDVRL; listed as Homo sapiens) [compound 175]	+		RCC, AML
176 (TLYEQEIEV; listed as Homo sapiens) [compound 176]			RCC, Brain Cancer, PC, PrC, NHL
177 (ILWDTLLRL; listed as Homo sapiens) [compound 177]	+		RCC, AML, Gallbladder Cancer, Bile Duct Cancer
178 (FAYDGKDYIA; listed as Homo sapiens) [compound 178]	+++	RCC, HNSCC	BRCA, Esophageal Cancer, OC
179 (ALDDTVLQV; listed as Homo sapiens) [compound 179]	+	HNSCC	SCLC, Esophageal Cancer
180 (KLAEALYIA; listed as Homo sapiens) [compound 180]	+	HNSCC	PrC, BRCA, Esophageal Cancer, Urinary bladder cancer
181 (GLIDLEANYL; listed as Homo sapiens) [compound 181]	+		Brain Cancer, CLL, Uterine Cancer
182 (SVALVIHNV; listed as Homo sapiens) [compound 182]	+	RCC, GC, HCC	NHL
183 (FLDSLIYGA; listed as Homo sapiens) [compound 183]			AML, BRCA, Uterine Cancer
184 (VLFSSPPVILL; listed as Homo sapiens) [compound 184]	+	HNSCC	NSCLC, Brain Cancer, PrC, CLL, NHL, Esophageal Cancer, Urinary bladder cancer
186 (FLDHEMVFL; listed as Homo sapiens) [compound 186]		Uterine Cancer	CLL, NHL, AML, Urinary bladder cancer
